# According to PubChem BioAssay AID1259415 (National Center for Advancing Translational Sciences (NCATS), 2018):
# Among all 410,000 compounds or so, about 18,000 (4.4%) were called active. The inconclusive results got no clear call from the source; some entries with a clear call stand among them for comparison. Rule as the data show it: active = activity change below about -60%; inconclusive = no clear call, values can overlap the other calls; inactive = above about -39%.
# Assay: qHTS Assay for inhibitors of the human cytomegalovirus (HCMV)
# Conditions: HFF cells, HCMV-luciferase reporter, 72 h; at 57.5 µM; hits give low values
# Procedure, shortened: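 Compounds were evaluated in HFFs infected with an HCMV luciferase reporter virus (MOI 1 PFU/cell). Luciferase in lysates collected 72 h post infection served as the replication measure.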
# % is scaled to controls: 0 for no effect and ±100 for the full control effect.
row,SMILES,"activity change, negative = inhibition"
1,CN(C)CCNC(=O)Nc1ccc([N+](=O)[O-])cc1,inconclusive: -47.9%
2,CS(=O)(=O)N1CCN=C1SCc1ccc(F)cc1,inconclusive: -41.8%
3,S=C(NCC1CCCO1)Nc1cccc(Cl)c1 (stereo not drawn),inconclusive: -41.6%
4,O=C1/C(=C/c2ccccc2F)SC(=S)N1CCC(=O)N1CCCCC1CCO (stereo not drawn),active: -84%
5,O=C(NC(=S)N1CCN(c2ccc([N+](=O)[O-])cc2)CC1)c1ccccc1F,inconclusive: -52.1%
6,CC(C)=C1SC(N2CCN(c3cccc(C(F)(F)F)c3)CC2)=NC1=O,inconclusive: -52.2%
7,COc1ccc(CCNC(=O)c2cc(S(=O)(=O)N(C)C)ccc2N2CCCC2)cc1,inconclusive: -58.2%
8,O=C(O)c1cn(-c2ccc(N3CCCC3)c(F)c2)c2c(F)c(F)c(F)cc2c1=O,inactive: -8.9%
9,COc1ccccc1C(=O)N1CCN(Cc2nc3cc([N+](=O)[O-])ccc3n2C)CC1,inconclusive: -51.6%
10,COc1ccc(-c2c(C)nn3c(N4CCN(c5ccccc5)CC4)cc(C)nc23)cc1OC,inconclusive: -53.4%
11,COc1ccc(OC)c(-c2cc(C(=O)Nc3c(C)nn(Cc4ccccc4)c3C)no2)c1,inactive: -28.2%
12,COc1ccc(/C=C2\SC(=O)N(CCCC(=O)Nc3ccc(C(=O)O)cc3)C2=O)cc1,active: -101%
13,COc1cc(C(=O)N(CCN(C)C)CC2CCCN(Cc3ccccc3F)C2)ccc1C (stereo not drawn),inactive: -35.7%
14,COc1ccc(-c2cc(-c3ccc(C)cc3)nc(SCc3nnc(-c4ccccc4)o3)c2C#N)cc1OC,inconclusive: -45.1%
15,NC(=O)CCCn1c(C(=O)c2ccc(Cl)cc2)c2ccc([N+](=O)[O-])cc2[n+]1[O-],inconclusive: -40.2%
16,CCN(CC(=O)Nc1ccccc1C(F)(F)F)C(=O)CCOc1ccc(C)cc1,inactive: 8.78%
17,Cc1cc(C(=O)COC(=O)c2cc(Cl)ccc2N)c(C)n1Cc1ccco1,inactive: 63%
18,CC(NC(=O)Nc1ccc(Cl)cc1)c1ccc2c(c1)OCO2 (stereo not drawn),inactive: -38.4%
19,CC(=O)N(C)c1ccc(NC(=O)COc2ccc(Br)cc2C)cc1,inconclusive: -55.8%
20,Nc1c(C(=O)Nc2ccc(Cl)cc2)sc2nc3c(cc12)N1CCC3CC1,active: -86.1%
21,COc1cccc(C2c3c(oc4ccc(Cl)cc4c3=O)C(=O)N2c2cc(C)on2)c1OC (stereo not drawn),inactive: -25.4%
22,O=C(NCC(=O)N(Cc1ccc(F)cc1)C(C(=O)NC1CCCC1)c1ccco1)c1ccco1 (stereo not drawn),inconclusive: -44.7%

# Three compounds from above, sorted by SMILES length, low to high:
row,SMILES,"activity change, negative = inhibition"
17,Cc1cc(C(=O)COC(=O)c2cc(Cl)ccc2N)c(C)n1Cc1ccco1,inactive: 63%
7,COc1ccc(CCNC(=O)c2cc(S(=O)(=O)N(C)C)ccc2N2CCCC2)cc1,inconclusive: -58.2%
15,NC(=O)CCCn1c(C(=O)c2ccc(Cl)cc2)c2ccc([N+](=O)[O-])cc2[n+]1[O-],inconclusive: -40.2%

# (cont.)

row,SMILES,"activity change, negative = inhibition"
1,CSCc1cc(N(C)c2ccccc2)nc(-c2ccccc2)n1,inactive: -23.8%
2,Cc1ccc(NC(=O)CN(C)C(=O)/C=C/c2cccc(F)c2)cc1,inconclusive: -44.9%
3,O=C(Nc1cccc(Cl)c1)N1CCSc2ccccc21,inconclusive: 0%
4,CCc1ccc(NC(=O)Nc2ccc3c(c2)N(C)C(=O)CS3)cc1,active: -69.4%
5,CCN(CC)c1cc(C)c2cc(NC(=O)c3cccc(F)c3)ccc2n1,inconclusive: -50.1%
6,Cc1[nH]c2ccccc2c1C(=O)COc1ccccc1F,inactive: 9.83%
7,COc1ccc(NC(=S)NCCc2c[nH]c3ccc(OC)cc23)c(OC)c1,inconclusive: -46.7%
8,Cc1ccc(C(=O)NNC(=O)CSc2nnc(-c3ccccc3)n2Cc2ccccc2)cc1,inconclusive: -45.4%
9,Cc1ccc(-c2nc(CN(C)C3CCOCC3)c(C)o2)s1,inactive: -11%
10,O=C(NC1CC(=O)N(c2cccc(F)c2)C1)c1ccc(S(=O)(=O)N2CCCC2)cc1 (stereo not drawn),inconclusive: -42.2%
11,COc1ccc(C(=O)N/N=C(\C)CC(=O)Nc2ccc3c(c2)OCCO3)c(OC)c1,inconclusive: -48%
12,COc1cccc(Cn2nnc(C(=O)Nc3cc(C)ccc3C)c2N)c1,inconclusive: -57.9%
13,Cc1ccc(N)cc1CN1CCCC1=O,inconclusive: -41.8%
14,COCCCNC(=S)N/N=C/c1ccccc1O,active: -62%
15,COc1ccc(OC)c(C(c2nnnn2C(C)(C)C)N2CCc3ccccc3C2)c1 (stereo not drawn),inconclusive: -53.2%
16,CN1CCc2c(sc3c2c(=O)n(-c2ccccc2)c2nnc(SCc4ccc(F)cc4)n32)C1,inconclusive: 0%
17,COc1ccc(C(C)(NC(C)=O)c2nc(-c3cccc(C(F)(F)F)c3)cs2)cc1 (stereo not drawn),inconclusive: -49.2%
18,CC(C)CS(=O)(=O)c1oc(-c2ccc(F)cc2)nc1S(=O)(=O)c1ccccc1,active: -99.8%
19,C=CCn1c(=S)[nH]c2ccc(Br)cc2c1=O,active: -60.7%
20,Nc1nc(SCC(=O)NCCCN2CCOCC2)nc2sc3c(c12)CCC3,inconclusive: -48%
21,C=Cc1cc(OC)c2c(c1)c(=O)oc1c2cc(OC)c2c(O)ccc(C3OC(C)C(O)C(C)(O)C3O)c21 (stereo not drawn),active: -97.8%
